In article PMC11131246 (Fluids and Barriers of the CNS, 2024):
Some peptides are written in HELM: one residue between dots, names in brackets for other building blocks, links after the first $. No end group written: not given here.

Assay: general procedure: Fmoc solid-phase peptide synthesis; Fmoc-Rink-amide ChemMatrix resin; HBTU, HOBt, DIEA, DIPCI (listed as materials)
Conditions: whole synthesis, HPLC peak integration of UV chromatogram, scale of the general procedure 0.1 mmol

## PEPTIDE1{K.K.K.K.Q.P.P.K.P.K.K.P.K.T.Q.E.K.K.K.K.Q.P.P.K.P.K.R.[am]}$$$$V2.0
  final HPLC purity: 98.57%

## CF-LKTLTETLKELTKTLTEL-amide
  final HPLC purity: 98.50%

## CF-APWHLSSQYSRT-amide (carboxyfluorescein N-term, C-amide)
  final HPLC purity: 93.68%

## KWCFRVCYRGICYRRCR-NH2 (cysteine pairing not given here)
  final HPLC purity: 94.63%

## CF-KKKKQPPKPKKPKTQEKKKKQPPKPKR-amide
  final HPLC purity: 98.04%

## CF-HIQLSPFSQSWR-amide
  final HPLC purity: 93.70%

## CF-NRPDSAQFWLHH-amide
  final HPLC purity: 96.68%

## CF-YDEEGGGE-amide
  final HPLC purity: 98.39%

## PEPTIDE1{A.P.W.H.L.S.S.Q.Y.S.R.T.[am]}$$$$V2.0
  final HPLC purity: 95.66%

## CF-YKEATSTFTNITYRGT-amide
  final HPLC purity: 95.32%

## PEPTIDE1{R.P.K.P.Q.Q.F.F.G.L.M.[am]}$$$$V2.0
  final HPLC purity: 95.23%

## CF-KWCFRVCYRGICYRRCR-amide
  final HPLC purity: 87.61%

## PEPTIDE1{H.I.Q.L.S.P.F.S.Q.S.W.R.[am]}$$$$V2.0
  final HPLC purity: 94.53%

## PEPTIDE1{E.E.G.R.L.Y.M.R.Y.Y.S.P.T.T.R.R.Y.G.[am]}$$$$V2.0
  final HPLC purity: 97.06%

## PEPTIDE1{K.Y.R.S.G.A.I.T.I.G.Y.[am]}$$$$V2.0
  final HPLC purity: 97.29%

## YTQDFNKFHTFPQTAIGVGAP-NH2
  final HPLC purity: 97.46%

## PEPTIDE1{Y.D.E.E.G.G.G.E.[am]}$$$$V2.0
  final HPLC purity: 95.71%

## CF-KYKGAIIGNIK-amide
  final HPLC purity: 96.02%

## PEPTIDE1{Y.K.E.A.T.S.T.F.T.N.I.T.Y.R.G.T.[am]}$$$$V2.0
  final HPLC purity: 86.69%

## CF-EEGRLYMRYYSPTTRRYG-amide
  final HPLC purity: 90.79%

## PEPTIDE1{L.K.T.L.T.E.T.L.K.E.L.T.K.T.L.T.E.L.[am]}$$$$V2.0
  final HPLC purity: 95.95%

## PEPTIDE1{N.R.P.D.S.A.Q.F.W.L.H.H.[am]}$$$$V2.0
  final HPLC purity: 93.08%

## CF-RPKPQQFFGLM-amide
  final HPLC purity: 95.05%

## CF-YTQDFNKFHTFPQTAIGVGAP-amide
  final HPLC purity: 94.18%

## CF-KYRSGAITIGY-amide
  final HPLC purity: 94.63%

## PEPTIDE1{K.Y.K.G.A.I.I.G.N.I.K.[am]}$$$$V2.0
  final HPLC purity: 96.54%
